PubChem BioAssay AID1259308 | NCATS – 2017

Purpose: 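Knock-downs that increase output of a recombinant reporter protein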 (primary screen)
System: human HEK293 embryonic kidney cells stably expressing firefly luciferase (HEK-CMV-Luc2-Hygro)
Knock-down reagent: single siRNA against human genes, 0.8 pmol siRNA per well
Timing: 72 h
Read-out: 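Reporter luminescence and viable-cell signal on separate replicate plates, given as percent of non-targeting control and median/MAD z-scores, plus per-cell luciferase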
Direction: total luciferase, z-score and total luciferase, % of control: higher = more reporter protein produced; luciferase per cell, z-score: higher = more reporter output per viable cell; viable cells, % of control: higher = more viable cells
Rule for the call: 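Active when the median/MAD z-score for overall luciferase is greater than 3; a gene was taken forward for validation with new siRNAs if at least two of its three siRNAs passed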
Meaning of the calls: active = raised luciferase; inactive = no rise
The deposit covers about 59,000 reagents; shown is a part drawn at random. About 1,510 of all reagents (2.6%) were called active. 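Calls use total luciferase alone and ignore viability, so some active siRNAs may act by altering cell number.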 A number with no mark means an inactive call. The numbers tell different reagents against one gene apart.

| gene symbol | siRNA no. | total luciferase, z-score | total luciferase, % of control | luciferase per cell, z-score | viable cells, % of control |
| --- | --- | --- | --- | --- | --- |
| MAGI2 | 1 | 1.55 | 113 | 2.72 | 61.4 |
| MAGI2 | 2 | 1.38 | 109 | 0.165 | 117 |
| MAGI2 | 3 | 0.606 | 93.9 | 0.295 | 97.1 |
| EEF1A1P15 | 1 | 1.05 | 103 | 0.935 | 89.7 |
| EEF1A1P15 | 2 | -0.408 | 73.8 | -0.287 | 88.9 |
| EEF1A1P15 | 3 | -0.0632 | 80.6 | -0.558 | 104 |
| CLCN5 (Cl-/H+ antiporter 5) | 1 | -0.228 | 77.4 | -0.073 | 88.1 |
| CLCN5 (Cl-/H+ antiporter 5) | 2 | 3.69 (active) | 155 | 2.08 | 100 |
| CLCN5 (Cl-/H+ antiporter 5) | 3 | -0.818 | 65.6 | -0.862 | 92 |
| POLR3H (RNA polymerase III subunit H) | 1 | -1.15 | 58.9 | -1.08 | 87.4 |
| POLR3H (RNA polymerase III subunit H) | 2 | -0.0484 | 80.9 | -0.197 | 95.2 |
| POLR3H (RNA polymerase III subunit H) | 3 | -1.65 | 49.1 | -1.66 | 85.1 |
| DEFB104A (defensin beta 104A) | 1 | 2.15 | 125 | 1.49 | 94 |
| DEFB104A (defensin beta 104A) | 2 | -0.195 | 78 | -0.787 | 107 |
| DEFB104A (defensin beta 104A) | 3 | 0.375 | 89.3 | 0.0514 | 98.5 |
| TAS2R41 (taste 2 receptor member 41) | 1 | 0.388 | 89.6 | 0.335 | 91.7 |
| TAS2R41 (taste 2 receptor member 41) | 2 | -1.68 | 48.5 | -0.305 | 58.8 |
| TAS2R41 (taste 2 receptor member 41) | 3 | 0.375 | 89.3 | 1.24 | 71.9 |
| TTPAL (alpha tocopherol transfer protein like) | 1 | -0.836 | 65.3 | -0.552 | 84.3 |
| TTPAL (alpha tocopherol transfer protein like) | 2 | -1 | 62 | -1.22 | 95.5 |
| TTPAL (alpha tocopherol transfer protein like) | 3 | 3.13 (active) | 144 | 1.49 | 109 |
| ZNF821 (zinc finger protein 821) | 1 | 0.84 | 98.6 | 0.666 | 92.5 |
| ZNF821 (zinc finger protein 821) | 2 | -0.652 | 68.9 | -0.537 | 88.7 |
| ZNF821 (zinc finger protein 821) | 3 | 0.674 | 95.3 | 0.266 | 99.3 |

An excerpt from above, showing only “luciferase per cell, z-score”:
EEF1A1P15 #2	-0.287
EEF1A1P15 #3	-0.558
CLCN5 (Cl-/H+ antiporter 5) #1	-0.073
